Experimental findings from PMC12559739 are described below.

This assay deals with StrepII-FLAG-tagged DCAF12 (human) (UniProt Q5T6F0). Description: co-IP; HEK293T co-transfected with SF-DCAF12 and HA-tagged constructs, MLN4924 for the final 6 h; whole-cell lysates, Strep-TactinXT affinity purification or anti-HA immunoprecipitation; western blot.

No constants are given. Whether binding was seen depends on the method and setting. In cells and extracts the contact can be indirect. Some binding calls cover weakened binding; strength is not graded here. Where a sequence is shown, tags or fusion partners need not be part of it.

B1: HA-tagged MOV10 (protein, UniProt Q9HCE1 1-1003)
chain: MPSKFSCRQLREAGQCFESFLVVRGLDMETDRERLRTIYNRDFKISFGTPAPGFSSMLYGMKIANLAYVTKTRVRFFRLDRWADVRFPEKRRMKLGSDISKHHKSLLAKIFYDRAEYLHGKHGVDVEVQGPHEARDGQLLIRLDLNRKEVLTLRLRNGGTQSVTLTHLFPLCRTPQFAFYNEDQELPCPLGPGECYELHVHCKTSFVGYFPATVLWELLGPGESGSEGAGTFYIARFLAAVAHSPLAAQLKPMTPFKRTRITGNPVVTNRIEEGERPDRAKGYDLELSMALGTYYPPPRLRQLLPMLLQGTSIFTAPKEIAEIKAQLETALKWRNYEVKLRLLLHLEELQMEHDIRHYDLESVPMTWDPVDQNPRLLTLEVPGVTESRPSVLRGDHLFALLSSETHQEDPITYKGFVHKVELDRVKLSFSMSLLSRFVDGLTFKVNFTFNRQPLRVQHRALELTGRWLLWPMLFPVAPRDVPLLPSDVKLKLYDRSLESNPEQLQAMRHIVTGTTRPAPYIIFGPPGTGKTVTLVEAIKQVVKHLPKAHILACAPSNSGADLLCQRLRVHLPSSIYRLLAPSRDIRMVPEDIKPCCNWDAKKGEYVFPAKKKLQEYRVLITTLITAGRLVSAQFPIDHFTHIFIDEAGHCMEPESLVAIAGLMEVKETGDPGGQLVLAGDPRQLGPVLRSPLTQKHGLGYSLLERLLTYNSLYKKGPDGYDPQFITKLLRNYRSHPTILDIPNQLYYEGELQACADVVDRERFCRWAGLPRQGFPIIFHGVMGKDEREGNSPSFFNPEEAATVTSYLKLLLAPSSKKGKARLSPRSVGVISPYRKQVEKIRYCITKLDRELRGLDDIKDLKVGSVEEFQGQERSVILISTVRSSQSFVQLDLDFNLGFLKNPKRFNVAVTRAKALLIIVGNPLLLGHDPDWKVFLEFCKENGGYTGCPFPAKLDLQQGQNLLQGLSKLSPSTSGPHSHDYLPQEREGEGGLSLQVEPEWRNEL
With B1, the binding entry was “binds”.
